According to paper PMC5585206:
Results are given in words; binding and its absence hold for the method and conditions named. In cells and extracts the contact can be indirect. Some entries that bind do so weakly or less than the wild type.

Columns and labels:
[1] = biological target: T1, IKKε (human (from the printed accession Q14164)) (UniProt Q14164); test: co-IP
T1 sequence: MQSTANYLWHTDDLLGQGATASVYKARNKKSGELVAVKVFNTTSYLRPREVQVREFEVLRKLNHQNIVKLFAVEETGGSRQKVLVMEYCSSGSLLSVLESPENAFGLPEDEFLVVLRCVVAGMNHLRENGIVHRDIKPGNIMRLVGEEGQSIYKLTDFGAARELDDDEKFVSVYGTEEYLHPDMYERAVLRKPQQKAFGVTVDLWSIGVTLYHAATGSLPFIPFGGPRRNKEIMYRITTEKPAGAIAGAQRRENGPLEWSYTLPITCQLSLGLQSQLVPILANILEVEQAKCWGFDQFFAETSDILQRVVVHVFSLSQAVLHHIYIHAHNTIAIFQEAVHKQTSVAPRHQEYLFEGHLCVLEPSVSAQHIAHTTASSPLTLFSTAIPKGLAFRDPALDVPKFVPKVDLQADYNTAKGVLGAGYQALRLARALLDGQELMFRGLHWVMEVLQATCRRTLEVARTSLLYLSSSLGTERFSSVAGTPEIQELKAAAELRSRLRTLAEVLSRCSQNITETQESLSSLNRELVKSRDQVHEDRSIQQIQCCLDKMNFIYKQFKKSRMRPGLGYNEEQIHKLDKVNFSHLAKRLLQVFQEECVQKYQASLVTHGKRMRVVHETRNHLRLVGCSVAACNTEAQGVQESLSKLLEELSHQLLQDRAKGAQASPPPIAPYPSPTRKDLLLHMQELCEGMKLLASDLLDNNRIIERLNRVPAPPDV

[2] = biological target: T2, TANK-binding kinase 1 (TBK1) (human (from the printed accession Q9UHD2)) (UniProt Q9UHD2); test: co-IP
T2 sequence: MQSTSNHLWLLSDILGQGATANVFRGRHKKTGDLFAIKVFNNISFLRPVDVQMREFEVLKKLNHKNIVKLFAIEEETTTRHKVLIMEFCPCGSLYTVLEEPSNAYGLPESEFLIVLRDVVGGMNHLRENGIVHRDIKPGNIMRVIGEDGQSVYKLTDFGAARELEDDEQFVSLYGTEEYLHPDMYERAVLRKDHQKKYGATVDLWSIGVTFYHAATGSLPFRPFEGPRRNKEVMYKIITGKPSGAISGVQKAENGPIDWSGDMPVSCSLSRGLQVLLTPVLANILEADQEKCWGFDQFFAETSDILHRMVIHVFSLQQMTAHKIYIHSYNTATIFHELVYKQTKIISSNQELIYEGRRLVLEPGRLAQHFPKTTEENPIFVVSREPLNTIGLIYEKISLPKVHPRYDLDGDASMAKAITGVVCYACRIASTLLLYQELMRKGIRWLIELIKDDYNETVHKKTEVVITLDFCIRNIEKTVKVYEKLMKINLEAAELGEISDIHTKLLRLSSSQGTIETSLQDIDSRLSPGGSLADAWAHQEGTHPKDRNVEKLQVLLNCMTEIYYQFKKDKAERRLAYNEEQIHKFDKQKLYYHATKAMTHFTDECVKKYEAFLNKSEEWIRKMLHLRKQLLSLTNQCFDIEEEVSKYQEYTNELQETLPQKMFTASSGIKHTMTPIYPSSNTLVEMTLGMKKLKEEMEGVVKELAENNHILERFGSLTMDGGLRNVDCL

“cytokine response modifier A (CrmA) (from UniProt P07385 1-341)” was tested. Which binding [1] did it give?
The binding was “binds”.

What about the binding [2] of the same substance?
The binding was “binds”.
